# In publication PMC10620772, “Design, synthesis, and biological evaluation of new pyrimidine-5-carbonitrile derivatives as novel anti-cancer, dual EGFR^WT/COX-2 inhibitors with docking studies” (RSC Advances, 2023):
# Assay: in vitro
# Details: human
# Experimental: Further perspectives of their mechanisms of action were carried.
# The preliminary in vitro antitumor investigation of our novel potential anticancer candidates was carried out by NCI, MD, USA (www.dtp.nci.nih.gov). […] Moreover, the safety profile of 4e & 4f at normal cells were evaluated.
smiles,measurement,value
"CN[C@@H]1C[C@H]2O[C@@](C)([C@@H]1OC)n1c3ccccc3c3c4c(c5c6ccccc6n2c5c31)C(=O)NC4 [Staurosporine, reference compound]",IC50,23 µM
